Among all 350,000 compounds or so, about 180 (0.051%) were called active. Inconclusive means that the source gave no clear call. Such entries were picked first, then a sample of the others.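 Rule for the calls: active = mean inhibition across replicates of 30% or more, whatever share of single replicates reach that level; inconclusive = mean inhibition below 30% while every single replicate reaches 30%; inactive = the rest.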
The compounds below were run against Protein disulfide-isomerase (Homo sapiens) (UniProt P07237) (assay: blockers of PDI-driven insulin aggregation – biochemical, turbidity, single point, plate reader, primary screen (AID 588391;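 note: absorbance from insulin aggregation driven by PDI reduction with DTT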)). Settings: A650, 90 min, at 10 µM, active compounds read high.

Amino acid sequences for entries named in this document (tags omitted).
UniProt P07237, whole entry, looked up: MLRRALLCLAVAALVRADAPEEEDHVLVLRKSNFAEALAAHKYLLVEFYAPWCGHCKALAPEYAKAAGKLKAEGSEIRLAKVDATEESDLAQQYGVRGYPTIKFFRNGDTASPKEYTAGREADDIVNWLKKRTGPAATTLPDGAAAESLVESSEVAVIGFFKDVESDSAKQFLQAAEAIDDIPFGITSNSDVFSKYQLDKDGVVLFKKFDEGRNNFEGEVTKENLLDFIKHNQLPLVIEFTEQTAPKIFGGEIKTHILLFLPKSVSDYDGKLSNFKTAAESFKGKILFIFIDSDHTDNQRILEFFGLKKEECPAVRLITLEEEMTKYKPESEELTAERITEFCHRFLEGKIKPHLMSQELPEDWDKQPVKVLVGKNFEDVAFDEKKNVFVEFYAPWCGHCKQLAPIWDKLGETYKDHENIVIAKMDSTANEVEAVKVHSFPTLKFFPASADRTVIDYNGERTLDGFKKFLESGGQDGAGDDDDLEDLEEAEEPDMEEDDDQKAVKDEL

Compound | inhibition
CCOC(=O)c1cc(S(=O)(=O)N2CCN(C(=O)OCC)CC2)cn1C | inconclusive: 33.5%
O=c1cc(N2CCN(c3ccc(F)cc3)CC2)[nH]c(=O)n1C1CCCCC1 | inactive: -4.17%
CCc1nc2ccc(C(=O)N(CC)CC(=O)Nc3c(F)cccc3F)cc2nc1CC | inconclusive: 33.9%
CCOC(=O)C1(C)CCCN(C(=O)c2cccc(Cl)c2)C1 (stereo not given) | inconclusive: 94.9%
COc1cccc(-n2ccnc2SCC(=O)Nc2cc(OC)ccc2OC)c1 | inconclusive: 31.5%
CCOC(=O)c1c(C)n(C)c2ccc(OCC(O)CNC(CC)CO)cc12 (stereo not given) | inactive: 1.46%
COc1ccc(C2c3ccc(O)cc3Oc3ncn(CCN4CCOCC4)c(=N)c32)cc1OC (stereo not given) | active: 53.6%
O=C(C[C@H]1C[C@H](C(=O)N2CCCCC2)[C@@]2(CCc3ccccc3)c3[nH]c4cc(-c5ccco5)ccc4c3CCN2C1=O)NCCC1=CCCCC1 | inconclusive: 30.5%
COc1cc2c(cc1OC)C(C)N(CC(=O)Nc1ccc(S(=O)(=O)N3CCCC3)cc1)CC2 (stereo not given) | inconclusive: 30.7%
N#Cc1c(NCCCO)nc(-c2ccco2)c2c1CCCC2 | inconclusive: 37.6%
Cn1c(-c2sc3cc(C(F)(F)F)cnc3c2-c2cccnc2)n[nH]c1=S | inactive: -0.974%
O=C1CN(c2nc3ccccc3n3cnnc23)CC(=O)N1CCc1ccccc1 | inconclusive: 30.2%
Cc1cccc(NC(=O)CN(C)S(=O)(=O)c2cccc3cccnc23)c1 | inactive: 2.79%
CC(OC(=O)c1cccc(S(=O)(=O)N(C)C)c1)C(=O)NCC(=O)Nc1ccc(F)c(F)c1F (stereo not given) | inconclusive: 33.4%
Cc1cc(NC(=O)COC(=O)C2CC(=O)N(c3ccccc3)C2)no1 (stereo not given) | inconclusive: 30.4%
CN(C)CC(O)CN(c1ccccc1)c1ccccc1 (stereo not given) | inactive: 1.16%
O=C(NCc1ccccc1)c1cc(C2CCCN(C(=O)C3CCCCC3)C2)on1 (stereo not given) | inconclusive: 104%
COc1cccc(NC(=O)CN(C)C(=O)/C=C/c2cc(OC)ccc2OC)c1 | inconclusive: 45.2%
COc1ccc(/C=C2\SC(=S)N(CCCC(=O)N3CCOCC3)C2=O)cc1OC | inconclusive: 86.5%
C[C@]12CC[C@H]3C(=CCc4cc(O)ccc43)[C@@H]1CCC2=O | active: 33.3%
CN(C)c1ccc(NC(=O)CN2C(=O)CC(c3ccccc3)=Nc3ccccc32)cc1 | inconclusive: 54.5%
Cc1cc(C)c(C)c(S(=O)(=O)N2CCC(C(=O)N(C)Cc3nc4ccccc4c(=O)[nH]3)CC2)c1C | inconclusive: 35.5%

Two entries from above in another layout:
COc1cccc(NC(=O)CN(C)C(=O)/C=C/c2cc(OC)ccc2OC)c1
  inhibition: inconclusive: 45.2%
COc1ccc(/C=C2\SC(=S)N(CCCC(=O)N3CCOCC3)C2=O)cc1OC
  inhibition: inconclusive: 86.5%

Next part.

Compound | inhibition
COc1ccc(CN(CCC(c2ccccc2)c2ccc(OC(C)C)cc2)C(=O)CCl)cc1OC (stereo not given) | active: 85.9%
Cc1noc2ncc(C(=O)c3cc(F)ccc3O)cc12 | inconclusive: 37.7%
Cc1ccc(S(=O)(=O)N(C)c2ccc(OC(=O)COc3ccccc3)cc2)cc1 | inconclusive: 33.7%
O=C(NN1CC(C(=O)OCc2ccccc2F)CC1=O)c1ccccc1 (stereo not given) | inconclusive: 60.4%
CCCNC(=O)c1onc(CSc2ccc(F)cc2)c1C(=O)NCC1CC1 | inactive: -1.11%
CCOC(=O)/C(C#N)=C/c1cc(C)n(-c2ccc(C)cc2)c1C | inconclusive: 30.7%
COC1=C/C(=C/c2c(N)n3cc(C)sc3nc2=O)C=CC1=O | inconclusive: 33.9%
COc1ccc(-c2nc(N)n[nH]2)cc1 | inconclusive: 33.8%
CC(=O)c1cc(-c2ccccc2)n(CC(=O)Nc2cccc(C)c2)c1C | inconclusive: 57.1%
CCCCNC(=O)CCn1c(=O)c2ccccc2n(CC(=O)Nc2ccccc2OCC)c1=O | inconclusive: 31.6%
C[C@H](CO)N1C[C@H](C)[C@H](CN(C)Cc2ccc(Oc3ccccc3)cc2)Oc2ccc(NC(=O)Nc3cccc4ccccc34)cc2CC1=O | inactive: 14.2%
Clc1cccc(OCCCN2CCCC2)c1Cl | inconclusive: 35.3%
CCCn1nnnc1NC(=O)c1cccs1 | inconclusive: 40.1%
Cc1cccn2c(CN(C)C3CCCc4ccccc43)c(C(=O)N3CCOCC3)nc12 (stereo not given) | active: 36.6%
C=CS(=O)(=O)c1ccc(Oc2ccc(S(=O)(=O)C=C)cc2)cc1 | inconclusive: 33.7%
CC(=O)c1ccc(NC(=O)c2cc(Cl)nc3ccccc23)cc1 | inconclusive: 35.1%
C[C@]12CC[C@@H]3c4ccc(O[C@@H]5O[C@H](C(=O)O)[C@@H](O)[C@H](O)[C@H]5O)cc4CC[C@H]3[C@@H]1C[C@@H](O)[C@@H]2O | inconclusive: 37.8%
Cc1n[nH]c(=O)c2c(NC(=O)CSc3nnnn3-c3ccc(O)cc3)oc(C)c12 | active: 42.6%
CC(C)(C#N)Cc1cc(CC(C)(C)C#N)cc(C(C)(C)C)c1 | inactive: -1.02%
O=C1C=CC2(C=C1)O[C@H](Cc1ccccc1)[C@@H](Cc1ccccc1)O2 | active: 44.5%
O=C1CCCC2=C1C(c1ccc(Br)cc1)c1c([nH]c(=S)[nH]c1=O)N2 (stereo not given) | inactive: -1.88%
CCOc1ccc(NC(=O)CCc2nnc3ccc(N4CCN(C)CC4)nn23)cc1 | inconclusive: 66.9%

Compound | inhibition
O=C(Nc1nnc(Cc2ccc(Cl)cc2)s1)C1CCCO1 (stereo not given) | inactive: -1.2%
CS(=O)(=O)c1ccc(C(=O)OCc2nnc(-c3ccc(Cl)cc3)o2)cc1[N+](=O)[O-] | active: 89.5%
Cc1ccc(C)c(NC(=O)CCC(=O)N/N=C/c2ccc3c(c2)OCO3)c1 | inactive: 0.743%
CC(NCC(O)COCc1ccc(Cl)cc1)c1ccccc1 (stereo not given) | inconclusive: 44.1%
Cc1nn(C)c(C)c1CNC(=O)Nc1ccc(Cl)cc1 | inactive: 2.12%
O=c1cc(CN2CCN(S(=O)(=O)/C=C/c3ccccc3)CC2)c2ccc(O)cc2o1 | inconclusive: 33.7%
NNC(=O)c1cc(-c2ccc(O)cc2)nc2ccc(Br)cc12 | active: 40.4%
O=C(O)CN1C(=O)/C(=C\c2cccc(OCc3ccccc3F)c2)SC1=S | inconclusive: 32.5%
O=C(NCc1ccncc1)Nc1cc(Cl)ccc1Cl | inconclusive: 31.6%
COc1cccc2sc(N(CCCN(C)C)C(=O)c3sc4ccccc4c3Cl)nc12 | inactive: 13.6%
CCN(CC)C(=O)CCc1nnc(Cc2cccc(C(F)(F)F)c2)o1 | inactive: 11.8%
C[n+]1cccc(C(=O)NCC2CCCO2)c1 (stereo not given) | inactive: 6.45%
c1ccc(-c2csc(Nc3ccc4c(c3)OCCO4)n2)cc1 | inconclusive: 32%
CN(C)CCN(C(=O)c1ccc2c(c1)OCCO2)c1nc2c(Cl)cccc2s1 | inactive: -0.665%
COc1cccc(N2CC(=O)N(c3cccc(OC)c3)CC2=O)c1 | inactive: -1.31%
CCc1ccc(-c2c(C)sc(NC(=O)C3CCC3)c2C#N)cc1 | inactive: -7.36%
CC(C)C1C(C#N)=C(N)Oc2n[nH]c(-c3ccccc3)c21 (stereo not given) | inactive: 4.06%
CCCCc1c(C)c2ccc(OCC(C)=O)cc2oc1=O | inactive: 0.713%
Cc1ccc(-c2noc(-c3ccoc3C)n2)cc1 | inconclusive: 31.2%
O=C(c1ccc(S(=O)(=O)N2CCCCC2)cc1)N1CCN(Cc2ccc3c(c2)OCO3)CC1 | inconclusive: 31.9%
CCOc1ccc2nc(NS(=O)(=O)Cc3ccccc3)sc2c1 | inconclusive: 32.1%
Cc1ccc(N2CC(C(=O)Nc3nc4ccc(S(C)(=O)=O)cc4s3)CC2=O)cc1 (stereo not given) | inconclusive: 33.7%

Gathered by group, those above containing bromine
Compound | inhibition
O=C1CCCC2=C1C(c1ccc(Br)cc1)c1c([nH]c(=S)[nH]c1=O)N2 (stereo not given) | inactive: -1.88%
NNC(=O)c1cc(-c2ccc(O)cc2)nc2ccc(Br)cc12 | active: 40.4%

Part of the list above, reformatted.
Compound,inhibition
O=C(O)CN1C(=O)/C(=C\c2cccc(OCc3ccccc3F)c2)SC1=S,inconclusive: 32.5%
CCN(CC)C(=O)CCc1nnc(Cc2cccc(C(F)(F)F)c2)o1,inactive: 11.8%

(continued)

Compound | inhibition
Cc1ccc(C(=O)NCCN2C3=NC[C@H](Cc4ccc(O)cc4)N3C[C@H]2Cc2ccc(O)cc2)cc1Br | active: 39.7%
Cc1ccc(CCNC(=O)C2CCC(=O)N2Cc2ccc(F)cc2)cc1 (stereo not given) | inactive: 0.196%
c1ccc(Cn2nnc3c(Nc4ccc5c(c4)OCO5)nc(C4CC4)nc32)cc1 | active: 65.7%
CN(c1ccccc1)S(=O)(=O)c1cc(C(=O)N2CCN(c3ncccn3)CC2)ccc1Cl | inconclusive: 36.9%
COC(=O)c1cccc(CSc2nnc(C)s2)c1 | inconclusive: 30.4%
CC(C)c1nc2sc3c(SCC(=O)NCc4ccco4)ncnc3c2c2c1CCC2 | inconclusive: 36.7%
COCC(=O)N(C)C1(c2nnnn2CCOC(=O)Nc2ccc(Cl)cc2)CCCCC1 | inconclusive: 30.2%
Cc1nc(N2CCOCC2)nc(N2CCCC2)c1[N+](=O)[O-] | inactive: 3.5%
c1coc(-c2cnc3ccccc3n2)c1 | inconclusive: 107%
COc1ccccc1NC(=O)c1ccc(NC(=O)COC(=O)c2cccnc2Cl)cc1 | inconclusive: 30.9%
CC(=O)c1ccc(N2CCN(c3ccc(C(N)=O)cc3[N+](=O)[O-])CC2)cc1 | inactive: 1.96%
O=C(CN1C(=O)NC2(CCCC2)C1=O)Nc1ccc(C(F)(F)F)cc1 | inconclusive: 62%
O=C(O)c1ccc(N/N=C/c2cn(Cc3ccc(F)cc3)c3ccccc23)cc1 | inactive: -1.24%
CCCCCCCCCCCCCCCC[n+]1ccccc1 | inconclusive: 31.3%
Cc1nc2sc(-c3ccccc3)cc2c(=O)n1/N=C/N(C)C | inconclusive: 31.7%
Cc1cccn2c(=O)c3cc(C(=O)NC(C)C)c(=N)n(Cc4ccncc4)c3nc12 | inactive: 4.1%
Cc1cc(C)cc(CC(=O)N2CCC2(C)C(=O)NS(=O)(=O)c2ccc(Br)cc2)c1 (stereo not given) | inconclusive: 106%
Cc1ccc(CN(c2ccc(C(=O)NCc3ccccn3)cc2)S(C)(=O)=O)cc1 | inconclusive: 30.6%
CC[C@]12c3[nH]c4cc(-c5ccco5)ccc4c3CCN1C(=O)[C@@H](CC(=O)NCc1ccco1)C[C@@H]2C(=O)N1CCN(C(=O)c2ccco2)CC1 | inconclusive: 34.2%

Reference: PubChem BioAssay AID588391 (Broad Institute, 2011)
